Results taken from patent US9103790B2, “Linker for unimolecular FRET biosensor based on principle of fluorescence resonance energy transfer” (KYOTO UNIVERSITY, priority 2010, dated 2015).

Tested on: Akt
Experiment: Eevee-Akt FRET/CFP fluorescence ratio at the basal state in COS7 cells
Type: cell-based, monkey
Settings: compared with 72-Gly linker

B1: EV116: EV linker polypeptide, SEQ ID NO: 18 (protein)
chain: SAGGSAGGSAGGSAGGSAGGSGSAGGSAGGSTSAGGSAGGSAGGSAGGSAGGSGSAGGSAGGSTSAGGSAGGSAGGSAGGSAGGSGSAGGSAGGSTSAGGSAGGSAGGSAGGSAGG
modifications: A 116 amino acid linker
FRET at the basal state (FRET/CFP fluorescence ratio): lower FRET at the basal state
FRET at the basal state (FRET/CFP fluorescence ratio) (listed as 116 a.a. EV linker): significantly reduces the basal state
